# Whole data set: some 33,000 sequences, median “E-score (-0.5 to 0.5)” near -0.0014, cut for the highest 2% near 0.25. The list shows a part of the results.
# Molecular target: T1, Cad1 (UniProt P24813)
# T1 sequence: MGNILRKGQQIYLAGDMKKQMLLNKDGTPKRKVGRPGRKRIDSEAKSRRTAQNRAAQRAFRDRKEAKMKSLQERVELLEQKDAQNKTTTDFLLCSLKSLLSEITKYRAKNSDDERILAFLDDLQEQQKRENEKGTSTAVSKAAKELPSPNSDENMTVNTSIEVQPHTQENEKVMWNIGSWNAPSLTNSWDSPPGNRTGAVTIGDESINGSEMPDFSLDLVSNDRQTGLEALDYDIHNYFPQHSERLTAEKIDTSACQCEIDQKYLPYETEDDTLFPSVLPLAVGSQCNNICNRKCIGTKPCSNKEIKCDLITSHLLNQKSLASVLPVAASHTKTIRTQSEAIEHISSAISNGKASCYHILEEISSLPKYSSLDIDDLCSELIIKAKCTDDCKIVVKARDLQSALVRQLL
# Experiment: PBM E-score (8-mer binding enrichment) (E-score (-0.5 to 0.5)); higher = stronger / more preferred TF binding
# Conditions: protein concentration: 100 nM; construct: GST-full length
# How it was run: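 E-scores (a modified Wilcoxon-Mann-Whitney statistic) were assigned by the Universal PBM Analysis Suite to every ungapped eight-base word pooled with its reverse complement. The input came from universal all-10-mer Agilent arrays made double-stranded by primer extension and probed with GST-tagged yeast transcription factors at about 100-200 nM. Fluorescent anti-GST detected bound protein, and masliner normalised the scans.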
row,Sequence,PBM E-score
1,CTTTGGCC,0.117
2,ACCTTGAT,0.0201
3,TGATGTAA,0.137
4,GTGGTTCA,0.232
5,AATGAGAC,0.0131
6,TCAACCAA,-0.0303
7,ATTACGTA,0.392
8,GTTAGAAC,0.185
9,AGCTCGGG,-0.0691
10,GAGTAAAC,0.00921
11,AGTACCAG,0.0586
12,ACCTCTGC,-0.0678
13,GGACGTGA,-0.0466
14,AGTCTGTG,-0.0498
15,AATGCTTC,0.00521
16,AATCAGTA,0.135
17,GCGATGTA,0.0688
18,CTAAAGAC,-0.0173
19,CCAAGACC,-0.0342
20,ATCGTTCA,0.0567
21,AGATATAA,0.0662
22,CTTTTTCA,0.0128
23,ACTGATTG,0.0651
24,AGGGAACG,0.00514
25,AACCTATT,-0.0253

# Shown bar-delimited: entries from further up.
row | Sequence | PBM E-score
4 | GTGGTTCA | 0.232
24 | AGGGAACG | 0.00514

# (cont.)

row,Sequence,PBM E-score
1,CCCTAAGA,-0.203
2,CCATGATC,-0.0206
3,ATCCACCC,-0.17
4,ACCTGGCG,-0.24
5,TCAGTGAA,0.0582
6,GCTAGGGA,-0.0885
7,GGCCTAAC,0.108
8,CAACTGCC,0.0955
9,ATTCTGGC,-0.00565
10,AAAGAAAC,0.0847
11,GATCCAGC,-0.157
12,AAAAATCC,0.126
13,CCACGTAC,-0.223
14,CAGCGAGA,-0.0281
15,ATGAGCAC,-0.109
16,ACGTGAAG,-0.0195
17,CGGGGAAG,-0.262
18,AGCTATAA,-0.143
19,AGCCTTAA,0.0172
20,AGGAGATC,-0.065
21,AACAAGTG,-0.072
22,AAGGGTAC,-0.163
23,GTGGAGCA,-0.193
24,AAGCATTG,0.0841
25,GAACGGAC,-0.0974

row,Sequence,PBM E-score
1,CGACCCAC,-0.0108
2,AGGAAGCC,-0.149
3,AATCTTCA,0.224
4,AGTATTCC,0.0466
5,GCTCCGAA,0.0968
6,CAGCACTA,0.0574
7,AAGTATTG,0.0607
8,GGAGCCGA,-0.18
9,CCCAGTTC,0.064
10,TATTTGCA,0.128
11,TGTCCACA,0.128
12,ACACTGAT,0.0356
13,GTGTTTGA,0.125
14,CAAAGTCA,0.0198
15,AGATGCAC,-0.184
16,CTATTCGA,0.0291
17,CTTGCCGC,-0.145
18,GAAGCTTC,0.182
19,AAAAATGC,0.0411
20,GAATTCAA,0.1
21,CCGAGGTA,-0.0142
22,GGCATCCA,-0.263
23,GGTTAGCA,-0.0859
24,CTACGCAC,-0.134
25,ATTACACC,0.108

row,Sequence,PBM E-score
1,CGTTACAC,-0.0163
2,GCGTTTCA,-0.017
3,CCCTTGGA,0.00683
4,CCAGCGTA,-0.0528
5,GGTGTCCA,0.136
6,ACTGAAAG,0.135
7,ACTATTTA,0.139
8,CGATCGAA,0.106
9,ATGGCGCA,0.0449
10,AATCCGCG,0.13
11,CCTACCCG,-0.0239
12,GAGTAGTA,0.0165
13,CCAGTACC,-0.0701
14,CACATAGC,-0.0297
15,AGCCGGGG,-0.193
16,CAATGGCA,0.0467
17,AGCTATGC,-0.18
18,AATTCTGT,0.0871
19,GCCGAACC,0.076
20,GGTGGGAC,-0.253
21,AACAATTA,0.192
22,AACTATCC,-0.154
23,CTACTTAC,-0.0322
24,CATCTGAC,-0.226
25,CACTCGGA,0.189

row,Sequence,PBM E-score
1,ACCCCGCT,-0.074
2,TACCTGCA,-0.0932
3,ACTCCTGA,0.00881
4,AACCACGT,0.0327
5,GATAGATC,0.0641
6,CCAGTTGA,-0.138
7,GAGAAAGC,0.0827
8,CCGCTACC,-0.072
9,AGACACTA,0.15
10,GATAGGGA,-0.201
11,ACCCAAAT,0.0208
12,AATCATAA,0.146
13,TAAGTGCA,0.109
14,ATGTGGTC,0.0547
15,GGATGCTA,-0.0527
16,ATGTCCCA,-0.242
17,ATTCCAAG,0.107
18,AGTCGCCG,0.0268
19,AAGTTGTC,0.0742
20,CAGCTCGA,0.0283
21,CTGTTCCC,-0.223
22,CGGGGATC,-0.22
23,GAAATCAC,0.166
24,AAAATTCT,-0.00425
25,AGTACACG,-0.0321

# Reprinted at random: 7 entries already listed
row,Sequence,PBM E-score
21,CTGTTCCC,-0.223
20,CAGCTCGA,0.0283
11,ACCCAAAT,0.0208
7,GAGAAAGC,0.0827
16,ATGTCCCA,-0.242
24,AAAATTCT,-0.00425
10,GATAGGGA,-0.201

# Further results follow:

row,Sequence,PBM E-score
1,GGTAACAA,0.261
2,CATACTAC,-0.0173
3,AGAAACGG,0.0692
4,GCTGATTA,0.378
5,GACGCGTA,0.247
6,AAACAATT,0.114
7,AAACGGTG,-0.104
8,CTTAATGC,0.0119
9,CGGTATAG,-0.128
10,CATCCTTC,-0.208
11,TACGCCCA,-0.114
12,GGACGGCC,-0.204
13,AACAATAT,0.338
14,AGGGGAGC,-0.359
15,CACCGGAG,-0.0402
16,ACAAACCC,-0.0167
17,CTAATTAA,0.147
18,ATTCGCGG,0.162
19,ACATCTCC,-0.00723
20,ATGCTCAC,-0.153
21,CCTTCGCC,-0.244
22,CAATTTAG,0.13
23,TAGGTAAA,-0.0826
24,CGGGTCGC,-0.0916
25,TGTAGAAA,-0.18

row,Sequence,PBM E-score
1,TCTCATAA,0.0752
2,AAGTCTAA,-0.0792
3,TGCTACAA,0.0619
4,AACCACTT,-0.0125
5,AGCTTCCC,-0.225
6,CCGGATTC,0.0348
7,CTCCTACA,-0.0759
8,AACCTGGA,-0.0733
9,CCCCTCAG,-0.398
10,CATACAAC,-0.0145
11,GGGTTCGA,-0.0275
12,ACATCTAC,0.107
13,TGAGGGCA,-0.168
14,GGGTCAAC,0.101
15,GAAGGAAA,-0.108
16,GCAGTTAA,0.044
17,TCCTACCA,-0.189
18,ATTCCTTG,-0.0547
19,CAAATGCG,-0.00119
20,ATTGAACC,0.0644
21,AATATCCC,-0.00553
22,ATTAGGGC,-0.0576

# From the supplement of paper PMC3334620
